Measurements published in PMC5732788.
No constants are given. Whether binding was seen depends on the method and setting. Binding seen in cells or lysates may run through a third protein. Here binding means that the protein was enriched with, or labelled near, the bait; the list need not be complete.

Protein sequences, listed by entry. Tags and fused reporters are not part of them.
UniProt P67809: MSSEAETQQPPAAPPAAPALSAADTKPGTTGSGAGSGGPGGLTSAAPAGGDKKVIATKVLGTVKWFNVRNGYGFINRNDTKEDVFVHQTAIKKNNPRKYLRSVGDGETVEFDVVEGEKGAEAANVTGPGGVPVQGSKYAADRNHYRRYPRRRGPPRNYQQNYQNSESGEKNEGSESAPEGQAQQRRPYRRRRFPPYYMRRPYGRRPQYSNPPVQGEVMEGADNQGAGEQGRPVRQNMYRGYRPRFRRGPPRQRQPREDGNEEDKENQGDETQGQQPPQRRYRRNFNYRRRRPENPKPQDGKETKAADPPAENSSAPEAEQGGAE

Target: T1, WAVE3 (human (endogenous in MDA-MB-231)) (UniProt Q9UPY6)
T1 sequence: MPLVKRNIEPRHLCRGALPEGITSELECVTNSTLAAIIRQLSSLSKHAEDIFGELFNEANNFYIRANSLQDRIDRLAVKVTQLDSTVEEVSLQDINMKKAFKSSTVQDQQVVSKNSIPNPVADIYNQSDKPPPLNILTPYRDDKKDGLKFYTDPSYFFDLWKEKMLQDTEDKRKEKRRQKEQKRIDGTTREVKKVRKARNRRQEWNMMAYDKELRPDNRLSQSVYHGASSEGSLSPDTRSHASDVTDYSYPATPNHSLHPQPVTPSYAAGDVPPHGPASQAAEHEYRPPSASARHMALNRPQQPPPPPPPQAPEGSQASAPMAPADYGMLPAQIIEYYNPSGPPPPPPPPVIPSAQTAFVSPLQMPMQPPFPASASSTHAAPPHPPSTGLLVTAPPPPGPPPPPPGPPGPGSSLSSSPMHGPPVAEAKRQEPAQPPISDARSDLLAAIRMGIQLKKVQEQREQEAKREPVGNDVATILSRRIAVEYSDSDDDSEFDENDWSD
Experiment: affinity purification with mass spectrometry; WAVE3 immunocomplexes isolated from MDA-MB-231 lysates; gel bands digested with trypsin, LC-MS/MS, Mascot search

## Y-box binding protein-1 (from UniProt P67809 1-324)
  binding: binds
